Among the data in PubChem BioAssay AID646 (Vanderbilt High Throughput Screening Facility, 2007) are luminescence values, retold here.

The chains behind the UniProt entries cited, without tags or fusion partners.
UniProt P21728, whole entry, looked up: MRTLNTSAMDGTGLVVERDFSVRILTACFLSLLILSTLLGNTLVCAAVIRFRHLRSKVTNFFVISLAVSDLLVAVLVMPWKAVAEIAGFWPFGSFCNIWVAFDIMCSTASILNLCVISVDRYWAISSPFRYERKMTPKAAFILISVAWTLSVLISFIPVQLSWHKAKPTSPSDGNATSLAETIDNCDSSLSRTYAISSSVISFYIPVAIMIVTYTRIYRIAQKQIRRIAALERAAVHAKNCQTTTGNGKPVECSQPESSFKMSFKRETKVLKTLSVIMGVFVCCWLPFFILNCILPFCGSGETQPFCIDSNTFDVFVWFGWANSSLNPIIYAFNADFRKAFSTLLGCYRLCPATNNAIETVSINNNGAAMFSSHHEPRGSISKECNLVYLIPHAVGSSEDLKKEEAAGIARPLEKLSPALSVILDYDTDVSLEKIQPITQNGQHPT

Each structure is given as a SMILES string. Among all 1,900 compounds or so, about 15 (0.8%) were called active. No stated cut-off is given here; in the data, active means luminescence above about 3900; inactive means the rest. The actives were mostly taken out for another list; the other results follow.

The target in the assay is D(1A) dopamine receptor (Homo sapiens) (UniProt P21728). Kind of assay: intrinsic activation of D1 CRE reporter – cell-based, HEK293 D1, CRE-luciferase, secondary assay 1, mechanism study for D1 allosteric modulator project, confirmation (AID 646). The note with it: no dopamine, at 10 µM, active compounds read high.
On to `CCC(=NCc1ccco1)c1c(O)n(Cc2ccccc2)c(=O)[nH]c1=O`, for which the luminescence was inactive: 1620.
